From publication doi:10.1101/2024.09.28.615612
Where two headings read alike, the source gives them in different places. No constants are given. Whether binding was seen depends on the method and setting. In cells and extracts the contact can be indirect. Some binding calls cover weakened binding; strength is not graded here. Where a sequence is shown, tags or fusion partners need not be part of it. One block for each molecule: values may come before it.

The chains behind the UniProt entries cited, without tags or fusion partners.
UniProt Q99L90: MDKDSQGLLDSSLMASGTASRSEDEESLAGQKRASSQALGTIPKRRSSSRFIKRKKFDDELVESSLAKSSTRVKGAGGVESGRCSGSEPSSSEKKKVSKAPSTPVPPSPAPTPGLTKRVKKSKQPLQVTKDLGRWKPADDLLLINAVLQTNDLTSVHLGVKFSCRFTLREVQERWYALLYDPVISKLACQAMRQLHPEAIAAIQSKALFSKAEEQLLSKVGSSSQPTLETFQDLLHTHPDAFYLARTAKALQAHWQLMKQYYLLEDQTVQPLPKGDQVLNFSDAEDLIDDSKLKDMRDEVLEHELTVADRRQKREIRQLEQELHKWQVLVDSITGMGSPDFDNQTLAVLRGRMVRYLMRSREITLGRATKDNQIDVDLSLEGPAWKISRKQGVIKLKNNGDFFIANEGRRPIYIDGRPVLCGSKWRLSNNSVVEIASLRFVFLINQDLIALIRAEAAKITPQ

Key:
Experiment in all cases: co-IP
[1] = biological target: T1, Flag-tagged SIX1 (mouse) (UniProt Q62231)
T1 sequence: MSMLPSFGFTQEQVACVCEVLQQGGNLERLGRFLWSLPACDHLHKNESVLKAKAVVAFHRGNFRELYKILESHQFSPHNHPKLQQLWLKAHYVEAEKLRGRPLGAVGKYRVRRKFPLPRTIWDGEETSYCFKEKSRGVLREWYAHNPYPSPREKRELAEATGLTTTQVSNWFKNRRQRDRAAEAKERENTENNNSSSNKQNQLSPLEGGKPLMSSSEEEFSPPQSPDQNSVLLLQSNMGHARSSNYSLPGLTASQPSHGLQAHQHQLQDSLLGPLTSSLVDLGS

[2] = biological target: T2, Myc-tagged SOBP (Mus musculus) (UniProt Q0P5V2)
T2 sequence: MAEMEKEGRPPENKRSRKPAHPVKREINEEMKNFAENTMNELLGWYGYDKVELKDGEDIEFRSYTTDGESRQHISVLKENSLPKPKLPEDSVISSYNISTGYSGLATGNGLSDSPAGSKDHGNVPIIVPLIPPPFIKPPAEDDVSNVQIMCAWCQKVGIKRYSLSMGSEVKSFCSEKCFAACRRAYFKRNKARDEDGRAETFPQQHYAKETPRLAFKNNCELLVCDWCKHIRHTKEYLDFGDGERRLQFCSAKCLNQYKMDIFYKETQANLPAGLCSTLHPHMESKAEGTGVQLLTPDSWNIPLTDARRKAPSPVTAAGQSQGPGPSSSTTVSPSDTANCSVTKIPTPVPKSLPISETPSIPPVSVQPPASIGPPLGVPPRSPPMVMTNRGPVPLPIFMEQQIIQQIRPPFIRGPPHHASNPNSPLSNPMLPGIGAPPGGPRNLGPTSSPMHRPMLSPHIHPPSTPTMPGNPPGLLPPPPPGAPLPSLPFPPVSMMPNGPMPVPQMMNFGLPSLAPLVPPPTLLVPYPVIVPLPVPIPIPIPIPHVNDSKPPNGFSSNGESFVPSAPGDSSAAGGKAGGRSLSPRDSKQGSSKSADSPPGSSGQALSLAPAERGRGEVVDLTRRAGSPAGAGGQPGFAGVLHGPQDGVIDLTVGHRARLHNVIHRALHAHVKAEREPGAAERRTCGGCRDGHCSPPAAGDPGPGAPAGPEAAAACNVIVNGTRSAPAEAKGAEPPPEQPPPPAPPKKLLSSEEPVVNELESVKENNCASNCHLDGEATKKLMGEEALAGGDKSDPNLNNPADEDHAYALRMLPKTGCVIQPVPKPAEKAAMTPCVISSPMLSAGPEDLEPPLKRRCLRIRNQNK

[3] = biological target: T3, HA-tagged EYA1 (mouse) (UniProt P97767)
T3 sequence: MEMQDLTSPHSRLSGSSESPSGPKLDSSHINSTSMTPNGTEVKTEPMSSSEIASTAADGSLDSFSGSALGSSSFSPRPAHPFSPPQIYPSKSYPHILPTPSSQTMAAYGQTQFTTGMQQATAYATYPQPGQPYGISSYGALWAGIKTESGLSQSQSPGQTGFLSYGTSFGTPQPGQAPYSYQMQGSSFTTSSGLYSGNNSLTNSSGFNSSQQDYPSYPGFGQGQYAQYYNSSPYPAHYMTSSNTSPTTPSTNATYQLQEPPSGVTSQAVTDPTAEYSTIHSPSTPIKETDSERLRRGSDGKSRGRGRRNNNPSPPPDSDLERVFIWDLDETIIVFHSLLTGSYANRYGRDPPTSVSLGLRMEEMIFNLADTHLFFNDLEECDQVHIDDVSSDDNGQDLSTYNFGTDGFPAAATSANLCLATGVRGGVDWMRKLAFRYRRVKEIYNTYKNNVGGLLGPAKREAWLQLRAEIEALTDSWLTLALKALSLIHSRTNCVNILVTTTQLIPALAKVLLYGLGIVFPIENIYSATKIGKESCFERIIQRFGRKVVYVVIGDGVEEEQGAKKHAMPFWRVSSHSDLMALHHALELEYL

[4] = biological target: T1, Flag-tagged SIX1 (mouse); remark: listed apart in the source
[5] = biological target: T4, HA-tagged EYA2 (mouse) (UniProt O08575)
T4 sequence: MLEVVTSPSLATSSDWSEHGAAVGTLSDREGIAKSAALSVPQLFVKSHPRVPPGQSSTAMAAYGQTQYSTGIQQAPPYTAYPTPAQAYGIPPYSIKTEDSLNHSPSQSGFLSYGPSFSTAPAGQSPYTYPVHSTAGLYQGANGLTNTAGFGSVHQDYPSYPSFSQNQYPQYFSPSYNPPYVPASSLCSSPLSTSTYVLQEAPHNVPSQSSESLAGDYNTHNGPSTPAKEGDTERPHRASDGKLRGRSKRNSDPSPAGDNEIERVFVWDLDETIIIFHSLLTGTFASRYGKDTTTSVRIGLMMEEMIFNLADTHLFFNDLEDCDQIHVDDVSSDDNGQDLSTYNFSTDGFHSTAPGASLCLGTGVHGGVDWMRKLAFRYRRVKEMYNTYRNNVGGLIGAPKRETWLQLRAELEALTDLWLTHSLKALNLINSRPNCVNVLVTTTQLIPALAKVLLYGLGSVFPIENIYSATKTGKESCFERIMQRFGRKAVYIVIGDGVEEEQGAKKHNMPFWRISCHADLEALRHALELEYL

[6] = biological target: Myc-tagged MCRS1 (Mus musculus) (UniProt Q99L90)

binding [1]: binds
Molecule: Myc-tagged MCRS1 (from UniProt Q99L90 1-462)

binding [3]: binds | binding [4]: binds | binding [5]: binds
B2: Myc-tagged SOBP (protein, UniProt Q0P5V2 1-864)
chain: T2 sequence

Further lines, the molecule ahead of its results:

B1: HA-tagged EYA2 (protein, UniProt O08575 1-532)
chain: T4 sequence
binding [2]: binds

B3: HA-tagged EYA1 (protein, UniProt P97767 1-591)
chain: T3 sequence
binding [2]: binds

B4: Flag-tagged SIX1 (protein, UniProt Q62231 1-284)
chain: T1 sequence
binding [2]: binds | binding [6]: binds
